Reference: US20100028924A1, “Method Of Diagnosing Pon1-Hdl Associated Lipid Disorders” (Rappaport Family Institute Research in the Medical Sciences, priority 2006, published 2010)

Test: Inactivation kinetics of rePON1 192 isozymes in activity buffer
Type: biochemical
Details: EDTA and β-mercaptoethanol, 37° C.
Procedure: FIG. 1 is a graph showing the inactivation kinetics of the wild-type rePON1-192K (SEQ ID NO:2), -192R (SEQ ID NO:4) and -192Q (SEQ ID NO:6) isozymes, bound to rHDL-apoA-I, or in buffer. Delipidated enzymes were incubated with a 50-fold excess of rHDL-apoA-I, or in activity buffer, and subjected to inactivation in the presence of EDTA (5 mM) and β-mercaptoethanol (10 mM) at 37° C. Residual activity at various time points was determined by initial rates of phenyl acetate hydrolysis (2 mM) and plotted as percent of the activity at time zero. Data were fitted to a single exponential for wild-type rePON1-192K on rHDL-apoA-I, and to double-exponentials for the remaining samples. The inactivation rate constants and amplitudes were derived from this fit;
Inactivation rates of rePON1s were measured as described [Gaidukov, L. and D. S. Tawfik, Biochemistry, 2005. 44(35): p. 11843-54]. Briefly, rePON1 samples were delipidated using Bio-Beads SM-2 (BioRad) and incubated in buffer, or with 50-fold molar excess of rHDL-apoA-I. EDTA (10 mM) and β-mercaptoethanol (20 mM) were added, and samples were incubated at 37° C. Residual activity at different time points was determined with 2 mM phenyl acetate, and inactivation rates were fitted to either mono- or double-exponentials [Gaidukov, L. and D. S. Tawfik, Biochemistry, 2005. 44(35): p. 11843-54].
The resultant inactivation profiles of wt rePON1 (SEQ ID NO: 2), rePON1-192Q (SEQ ID NO: 6) and rePON1-192R (SEQ ID NO: 4), were fitted to exponential curves as illustrated in FIG. 1.

| Molecule | A2 (%) (amplitude of second, slow inactivation phase) |
| --- | --- |
| rePON1-192R: recombinant PON1 with arginine at position 192, generated to mimic the human R isozyme (protein, rePON1-192R isozyme, recombinant PON1 with arginine at position 192, generated to mimic the human R isozyme) MAKLTALTLLGLGLALFDGQKSSFQTRFNVHREVTPVELPNCNLVKGVDNGSEDLEILPNGLAFISSGLKYPGIMSFDPDKSGKILLMDLNEEDPVVLELGITGNTLDISSFNPHGISTFTDEDNTVYLLVVNHPDSSSTVEVFKFQEEEKSLLHLKTIRHKLLPSVNDIVAVGPEHFYATNDHYFADPYLRSWEMHLGLAWSFVTYYSPNDVRVVAEGFDFANGINISPDGKYVYIAELLAHKIHVYEKHANWTLTPLKSLDFDTLVDNISVDPVTGDLWVGCHPNGMRIFYYDPKNPPGSEVLRIQDILSEEPKVTVVYAENGTVLQGSTVAAVYKGKLLIGTVFHKALYCEL | 31 |
| rePON1-192Q: recombinant PON1 with glutamine at position 192, generated to mimic the human Q isozyme (protein, rePON1-192Q isozyme, recombinant PON1 with glutamine at position 192, generated to mimic the human Q isozyme) MAKLTALTLLGLGLALFDGQKSSFQTRFNVHREVTPVELPNCNLVKGVDNGSEDLEILPNGLAFISSGLKYPGIMSFDPDKSGKILLMDLNEEDPVVLELGITGNTLDISSFNPHGISTFTDEDNTVYLLVVNHPDSSSTVEVFKFQEEEKSLLHLKTIRHKLLPSVNDIVAVGPEHFYATNDHYFADPYLQSWEMHLGLAWSFVTYYSPNDVRVVAEGFDFANGINISPDGKYVYIAELLAHKIHVYEKHANWTLTPLKSLDFDTLVDNISVDPVTGDLWVGCHPNGMRIFYYDPKNPPGSEVLRIQDILSEEPKVTVVYAENGTVLQGSTVAAVYKGKLLIGTVFHKALYCEL | 24 |
| wt rePON1-192K: recombinant wild-type PON1 variant G3C9 with C-terminal His8-tag, lysine at position 192, close homologue of rabbit PON1 (protein, C-terminal His8 tag; WT rePON1-192K, recombinant wild-type PON1 variant G3C9 with C-terminal His8-tag, lysine at position 192, close homologue of rabbit PON1) MAKLTALTLLGLGLALFDGQKSSFQTRFNVHREVTPVELPNCNLVKGVDNGSEDLEILPNGLAFISSGLKYPGIMSFDPDKSGKILLMDLNEEDPVVLELGITGNTLDISSFNPHGISTFTDEDNTVYLLVVNHPDSSSTVEVFKFQEEEKSLLHLKTIRHKLLPSVNDIVAVGPEHFYATNDHYFADPYLKSWEMHLGLAWSFVTYYSPNDVRVVAEGFDFANGINISPDGKYVYIAELLAHKIHVYEKHANWTLTPLKSLDFDTLVDNISVDPVTGDLWVGCHPNGMRIFYYDPKNPPGSEVLRIQDILSEEPKVTVVYAENGTVLQGSTVAAVYKGKLLIGTVFHKALYCEL | 31 |
